Where no end group is shown, it is not given here.
Assay: Quantitation of immobilized levels of tritium-labelled peptides on biomaterials (loading density)
Conditions: nonilluminated

Sequence | Peptide Reagent Control Adsorbed (on PS) [ng/cm^2] | Peptide Reagent Control Adsorbed (on PU) [ng/cm^2] | Peptide Reagent Control Adsorbed (on SR) [ng/cm^2]
GRGDSPKKC [RGD reagent control, reference compound] | 66 | 23 | 65
RYVVLPRPVCFEKK [F-9 reagent control, F-9 peptide not incorporated into polymer, laminin-derived, reference compound] | 57 | 31 | 75

Source: patent publication US6514734B1, “Polybifunctional reagent having a polymeric backbone and latent reactive moieties and bioactive groups” (Surmodics, Inc., priority 1997, dated 2003)
